Data: publication doi:10.1101/2020.08.12.247809
No constants are given. Whether binding was seen depends on the method and setting. Some binding calls cover weakened binding; strength is not graded here. Where a sequence is shown, tags or fusion partners need not be part of it.

Protein sequences, listed by entry. Tags and fused reporters are not part of them. Residues count along the entry.
UniProt Q68FF0, residues 144-261: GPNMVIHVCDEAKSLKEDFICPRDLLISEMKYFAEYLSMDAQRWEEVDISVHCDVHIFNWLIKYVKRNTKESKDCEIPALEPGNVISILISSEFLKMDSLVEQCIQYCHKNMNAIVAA

Molecular target: T1, GST-SMRT(1383-1467) (mouse) (UniProt Q9WU42)
T1 sequence: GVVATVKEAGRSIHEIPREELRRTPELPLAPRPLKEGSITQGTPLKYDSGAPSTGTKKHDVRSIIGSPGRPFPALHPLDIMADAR
Test: pull-down

binding: binds
Substance: His6-KIAA1841(BTB) (from UniProt Q68FF0-1 144-261) (domain or fragment)
